Test results as given in US20250361274A1, “PEPTIDE AND PEPTIDE-CONTAINING AGENT” (PEPTIDREAM INC., priority 2022, published 2025).
Not every detail of the peptide structures is certain; ends, links or a residue may be inferred. Numbered stars: 1 amine (or outer) side, 2 acyl side, 3 side chain; on linkers, the order of the positions; unused ones are H or OH. Bridge positions count the residues as written; N and C are the ends. Square brackets hold non-standard residues; d marks the D form. Side chains are listed from the residue outwards. Peptide text beside a SMILES is read from it. * marks the point of attachment. Phe(4-COOH) = N[C@@H](Cc1ccc(C(=O)O)cc1)C(=O)O; Piperazinyl(4-CH2COOH) = O=C(O)CN1CCN(*)CC1; Bip = N[C@@H](Cc1ccc(-c2ccccc2)cc1)C(=O)O; Ala(4-THP) = N[C@@H](CC1CCOCC1)C(=O)O; CO = O=C([*:1])[*:2]; βAla = NCCC(=O)O

Experiments:
BMP7 = biological target: T1, BMP7 (Homo sapiens, UniProt P18075); assay: BMP7 signal transduction inhibitory activity: SMAD1 phosphorylation by BMP7 stimulus, A549 cells; assay type: cell-based
T1 sequence (P18075 293-431): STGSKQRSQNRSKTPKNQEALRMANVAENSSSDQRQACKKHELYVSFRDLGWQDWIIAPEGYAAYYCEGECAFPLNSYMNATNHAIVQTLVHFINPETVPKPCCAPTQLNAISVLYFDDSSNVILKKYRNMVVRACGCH
Protocol: In the present Example, BMP7 signal transduction inhibitory activity of each peptide consisting of an amino acid sequence set forth in any of SEQ ID NOs: 5 to 240 and 243 to 421 synthesized in Example 10 was verified by phosphorylation of SMAD1 caused by BMP7 stimulus. The evaluation was performed using 10 nM of BMP7 instead of BMP 4. Regarding SEQ ID NOs: 5 to 240, the concentrations of the peptides synthesized in the same manner as in Example 2 (shown as 2 in the row of Synthesis) were 1 nM, 10 nM, and 100 nM, and the concentrations of the peptides synthesized in the same manner as in Example 1 (shown as 1 in the row of Synthesis) were 10 nM, 100 nM, and 1,000 nM, similarly with Example 11. […] Regarding SEQ ID NOs: 243 to 273 and SEQ ID NOs: 299 to 321, the test was performed at the concentrations (10, 100, 1,000 nM) described in Table 6. […] Regarding SEQ ID NOs: 274 to 298, the test was performed at the concentrations (100, 300, 1,000 nM) described in Table 6. […] Specifically, the inhibitory activity of BMP4 was evaluated in the same manner as in Example 11 that used A549 cells. […] The inhibitory activity of BMP7 was evaluated in the same manner as in Example 12. […] The inhibitory activity of BMP7 was evaluated using eight concentrations of the peptides at a common ratio of 1/3 starting from 1,000 nM in the same manner as in Example 12.

BMP4 = biological target: T2, BMP4 (Homo sapiens, UniProt P12644); assay: BMP4 signal transduction inhibitory activity: SMAD1 phosphorylation by BMP4 stimulus, AlphaLISA SureFire, A549 cells; assay type: cell-based
T2 sequence (P12644 293-408): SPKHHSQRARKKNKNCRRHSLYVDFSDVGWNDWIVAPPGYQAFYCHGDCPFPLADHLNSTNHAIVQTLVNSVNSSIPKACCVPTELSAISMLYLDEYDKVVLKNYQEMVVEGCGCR
Protocol: In the present Example, a BMP4 signal transduction inhibitory activity of each peptide consisting of an amino acid sequence set forth in any of SEQ ID NOs: 5 to 240 and 243 to 421 synthesized in Example 10 was verified by phosphorylation of SMAD1 caused by BMP4 stimulus. A549 cells were cultured in MEM (Thermo Fisher Scientific) containing 10% FBS (Thermo Fisher Scientific), 1×Non-essential amino acids (Thermo Fisher Scientific), and 50 μg/mL Gentamicin. After TrypLE (Gibco) was used to peel the cells, seeding was performed in a 96-well plate for adhesion cells so that the number of cells would be 20,000 per well, followed by culturing for 48 hours. […] According to the protocol of the kit, a signal was detected using SpectraMax (registered trademark) Paradigm (registered trademark) multimode microplate reader (Molecular Devices). The obtained signal was analysed using GraphPad Prism (GraphPad Software). […] Specifically, the inhibitory activity of BMP4 was evaluated in the same manner as in Example 11 that used A549 cells. […] The inhibitory activity of BMP7 was evaluated in the same manner as in Example 12. […] The inhibitory activity of BMP7 was evaluated using eight concentrations of the peptides at a common ratio of 1/3 starting from 1,000 nM in the same manner as in Example 12.

CC(C)[C@@H]1NC(=O)[C@H](CCCNC(=N)N)NC(=O)[C@H](CCC(=O)O)NC(=O)CSC[C@@H](C(=O)NCCC(=O)N[C@H](CCC(=O)O)C(=O)O)NC(=O)[C@H](CO)NC(=O)[C@H](Cc2ccc(C(=O)O)cc2)NC(=O)[C@H](Cc2ccc(C(=O)O)cc2)NC(=O)[C@H](Cc2ccc(O)cc2)NC(=O)[C@H](Cc2ccc(-c3ccccc3)cc2)NC(=O)[C@@H]2CCCN2C(=O)[C@H](Cc2ccc(O)cc2)NC(=O)[C@@H]2CCCN2C(=O)[C@H](Cc2ccc(-c3ccccc3)cc2)NC(=O)[C@H](CCCNC(=N)N)NC(=O)[C@H](CCCCNC(=O)N2CCN(CC(=O)O)CC2)NC(=O)[C@H](CC2CCOCC2)NC(=O)[C@H](Cc2ccc(C(=O)O)cc2)NC1=O [SEQ ID No. 181] ({CH2CO}-ERV[Phe(4-COOH)][Ala(4-THP)]K([CO-Piperazinyl(4-CH2COOH)])R[Bip]PYP[Bip]Y[Phe(4-COOH)][Phe(4-COOH)]SC[βAla][dE]-OH; thioether N-17)
BMP7 inhibitory activity (in words) (BMP7): same level of the BMP7 inhibitory activity as Noggin
BMP4 inhibitory activity (in words) (BMP4): same level of the BMP4 inhibitory activity as Noggin
aLISA BMP4 (BMP4; class of inhibition of SMAD1 phosphorylation by BMP4 stimulus, AlphaLISA, A549 cells): A (showed an inhibitory activity of 50% or more in a zone to which the peptide was added to in an amount of 0.2 nM)
